Experimental data published in article PMC9630430.
Construct, isoform or probe ends are uncertain for at least one entry. For some of these results: Weaker means in comparison with the reference protein, sequence or condition of that experiment. For some of these results: At least one verdict rests on a figure or table, not on a statement of the authors.

Sequences of proteins named here, by UniProt entry; tags and fusion partners are left off. A change or cut given only in a name is not applied to a line headed by its entry. Residues count along the entry.
UniProt P09874, 103-214: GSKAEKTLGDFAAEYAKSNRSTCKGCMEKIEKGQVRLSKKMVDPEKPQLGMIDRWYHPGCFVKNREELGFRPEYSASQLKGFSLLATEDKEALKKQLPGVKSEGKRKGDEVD
UniProt P09874, whole entry: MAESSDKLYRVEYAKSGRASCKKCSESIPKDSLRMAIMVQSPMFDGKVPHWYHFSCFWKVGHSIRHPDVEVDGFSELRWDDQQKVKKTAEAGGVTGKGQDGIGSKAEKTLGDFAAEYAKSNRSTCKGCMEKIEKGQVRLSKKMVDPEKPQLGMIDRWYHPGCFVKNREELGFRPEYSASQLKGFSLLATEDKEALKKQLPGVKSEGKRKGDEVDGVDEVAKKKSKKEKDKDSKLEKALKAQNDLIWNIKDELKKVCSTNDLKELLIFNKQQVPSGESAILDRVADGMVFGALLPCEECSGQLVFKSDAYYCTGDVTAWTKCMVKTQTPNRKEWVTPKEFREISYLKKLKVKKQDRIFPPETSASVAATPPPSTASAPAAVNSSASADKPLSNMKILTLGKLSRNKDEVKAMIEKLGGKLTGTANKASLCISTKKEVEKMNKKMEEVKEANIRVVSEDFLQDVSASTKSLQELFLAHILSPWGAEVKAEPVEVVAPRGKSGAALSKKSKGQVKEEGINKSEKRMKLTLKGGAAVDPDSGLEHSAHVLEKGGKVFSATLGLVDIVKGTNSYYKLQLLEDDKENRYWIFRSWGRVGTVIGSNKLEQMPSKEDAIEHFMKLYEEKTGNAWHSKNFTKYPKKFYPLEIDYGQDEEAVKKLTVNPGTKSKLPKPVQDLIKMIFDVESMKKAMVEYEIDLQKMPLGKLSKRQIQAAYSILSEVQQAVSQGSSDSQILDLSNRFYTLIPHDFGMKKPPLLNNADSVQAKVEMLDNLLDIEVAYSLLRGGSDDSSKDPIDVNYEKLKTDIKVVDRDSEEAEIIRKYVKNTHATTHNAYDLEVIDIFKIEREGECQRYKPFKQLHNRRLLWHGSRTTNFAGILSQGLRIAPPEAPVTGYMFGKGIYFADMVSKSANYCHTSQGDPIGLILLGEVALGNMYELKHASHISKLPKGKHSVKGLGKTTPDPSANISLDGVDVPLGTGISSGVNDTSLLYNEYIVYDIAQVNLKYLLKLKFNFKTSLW
UniProt P09874, 1-103: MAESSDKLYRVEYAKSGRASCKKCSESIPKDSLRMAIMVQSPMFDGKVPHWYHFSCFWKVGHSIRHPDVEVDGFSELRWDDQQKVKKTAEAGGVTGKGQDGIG
UniProt P09874, 1-214: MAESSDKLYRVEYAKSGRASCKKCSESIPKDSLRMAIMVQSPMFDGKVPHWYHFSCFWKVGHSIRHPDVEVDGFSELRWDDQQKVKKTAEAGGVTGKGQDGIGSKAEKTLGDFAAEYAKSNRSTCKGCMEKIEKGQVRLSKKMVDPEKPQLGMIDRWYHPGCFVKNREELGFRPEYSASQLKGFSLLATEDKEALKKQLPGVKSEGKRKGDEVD
UniProt P18887: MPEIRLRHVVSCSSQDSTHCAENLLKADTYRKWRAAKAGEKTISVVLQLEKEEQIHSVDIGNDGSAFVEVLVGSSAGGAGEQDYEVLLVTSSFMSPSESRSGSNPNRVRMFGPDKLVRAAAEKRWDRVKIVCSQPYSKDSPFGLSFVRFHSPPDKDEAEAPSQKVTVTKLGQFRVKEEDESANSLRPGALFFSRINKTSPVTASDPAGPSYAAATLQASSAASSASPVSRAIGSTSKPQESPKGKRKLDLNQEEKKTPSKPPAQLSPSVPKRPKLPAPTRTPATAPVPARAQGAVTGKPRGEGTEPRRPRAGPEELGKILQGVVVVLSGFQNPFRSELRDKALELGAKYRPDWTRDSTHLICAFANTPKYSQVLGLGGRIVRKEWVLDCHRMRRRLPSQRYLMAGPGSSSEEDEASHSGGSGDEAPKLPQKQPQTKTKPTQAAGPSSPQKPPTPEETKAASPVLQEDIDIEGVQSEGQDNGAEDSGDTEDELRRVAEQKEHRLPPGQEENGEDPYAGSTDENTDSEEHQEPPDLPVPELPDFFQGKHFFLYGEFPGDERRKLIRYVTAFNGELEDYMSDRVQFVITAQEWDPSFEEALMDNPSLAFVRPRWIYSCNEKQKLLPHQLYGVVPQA

Tests used:
PARP-1 F2 (Homo sapiens) = PARP-1 F2 (Homo sapiens) (UniProt P09874); test: smFRET / FRET-FCS; conditions: intermediate kink; C2-linker on T18 and T37; recombinant protein; residues 103-214; label: Alexa647 at T18, ATTO550 at T37; folded or branched DNA
hXRCC1 (Homo sapiens) = hXRCC1 (Homo sapiens) (UniProt P18887); test: smFRET / FRET-FCS; conditions: no PARP-1, DNA conformation unchanged, diffusion time increased; C2-linker on T18 and T37; recombinant protein; protein details: C-terminal His6; label: Alexa647 at T18, ATTO550 at T37; folded or branched DNA
PARP-1 F2 + hXRCC1 = test: smFRET / FRET-FCS; conditions: XRCC1 with F2: three states, E=0.51, 0.70, 0.85; C2-linker on T18 and T37; recombinant protein; protein details: C-terminal His6; label: Alexa647 at T18, ATTO550 at T37; folded or branched DNA
[1] = molecular target: PARP-1 full length (Homo sapiens) (UniProt P09874); test: smFRET / FRET-FCS; conditions: niraparib, unkinked state increased, diffusion time 1976 us vs 1303 us free DNA; C2-linker on T18 and T37; recombinant protein; label: Alexa647 at T18, ATTO550 at T37; folded or branched DNA
PARP-1 F1 (Homo sapiens) = PARP-1 F1 (Homo sapiens) (UniProt P09874); test: smFRET / FRET-FCS; conditions: DNA stays straight, less bound than F2 at equal concentration; C2-linker on T18 and T37; recombinant protein; residues 1-103; label: Alexa647 at T18, ATTO550 at T37; folded or branched DNA
[2] = molecular target: PARP-1 F1F2 (Homo sapiens) (UniProt P09874); test: smFRET; conditions: 1 uM F1F2, kinked DNA, E=0.86; C2-linker on T18 and T37; recombinant protein; residues 1-214; label: Alexa647 at T18, ATTO550 at T37; folded or branched DNA
[3] = molecular target: PARP-1 full length (Homo sapiens) (UniProt P09874); test: smFRET; conditions: C2-linker on T18 and T37, recombinant protein, label: Alexa647 at T18, ATTO550 at T37, folded or branched DNA
[4] = system: PARP-1 full length + hXRCC1; test: smFRET / FCS; conditions: 1 uM PARP-1, diffusion time increased, no FRET change; C2-linker on T18 and T37; recombinant protein; label: Alexa647 at T18, ATTO550 at T37; folded or branched DNA

Measured: binding result

GCTGGCTGATCGTAAGATCAGCCAGCCGCGGTCGGCTGTCAGCTTGCTGACAGCCGACCGCG [DNAATTO nicked dumbbell]
binds more weakly: PARP-1 F1 (Homo sapiens)
binds: PARP-1 F2 (Homo sapiens) | hXRCC1 (Homo sapiens) | PARP-1 F2 + hXRCC1 | [1] | [2] | [3]; EB-47, kinked state stabilized | [3]; no inhibitor, kinked DNA, E=0.87 | [3]; olaparib, neutral effect | [3]; rucaparib | [3]; talazoparib | [3]; veliparib | [4]
